Some of these results come from one statement about several compounds together.
System: VEGF-induced permeability
Assay: Miles permeability assay
Type: in vivo, guinea pig
Settings: Miles assay in guinea pigs

## 2C3: anti-VEGF monoclonal antibody, IgG2a,k, hybridoma ATCC PTA 1595; blocks VEGF binding to VEGFR2 but not VEGFR1 [Clone 2C3]
  Molar excess of IgG over VEGF at which VEGF-induced permeability is inhibited: ≥ 10 -fold molar excess over VEGF
